The record followed here is paper doi:10.1101/2020.12.21.423744.

By UniProt entry, the sequences of proteins in these tests, tags left out.
UniProt Q86WV6, whole entry: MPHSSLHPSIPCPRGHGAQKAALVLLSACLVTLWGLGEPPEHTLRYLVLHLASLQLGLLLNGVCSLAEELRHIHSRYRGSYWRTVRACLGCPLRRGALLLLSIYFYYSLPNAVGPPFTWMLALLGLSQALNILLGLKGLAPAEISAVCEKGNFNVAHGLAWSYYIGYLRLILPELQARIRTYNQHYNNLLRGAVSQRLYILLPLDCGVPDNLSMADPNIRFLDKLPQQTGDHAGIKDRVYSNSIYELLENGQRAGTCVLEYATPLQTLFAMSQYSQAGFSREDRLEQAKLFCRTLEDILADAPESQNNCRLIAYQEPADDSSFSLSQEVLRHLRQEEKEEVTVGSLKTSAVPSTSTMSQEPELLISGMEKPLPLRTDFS

No constants are given. Whether binding was seen depends on the method and setting. In cells and extracts the contact can be indirect. A yes stands for co-enrichment or nearness to the bait. Other partners may have been found.

This assay deals with STING-GFP (STimulator of INterferon Genes fused to GFP) (UniProt Q86WV6). Put plainly: affinity purification with mass spectrometry.

Turning to SYNCRIP (from UniProt O60506 1-623), the binding result is reported as “binds”. For the substance MEN1 (from UniProt O00255 1-610), the binding result is reported as “binds”.

For DDX41 (from UniProt Q9UJV9 1-622), the binding entry is “binds”. MLL1 (from UniProt Q03164 1-3969): the binding entry is reported as “binds”. In the case of PARP1 (from UniProt P09874 1-1014) it was “binds”; in that of Brd2 (from UniProt P25440 1-801), “binds”; in that of Rbmx (from UniProt P38159 1-391), “binds”. The entry for Lamin A (from UniProt P02545 1-646) is “binds”; for DDX5 (from UniProt P17844 1-614) it is “binds”.
